# Source: publication PMC3636044
# Chains of the proteins cited; added tags and fusions are not shown.
# UniProt Q16637: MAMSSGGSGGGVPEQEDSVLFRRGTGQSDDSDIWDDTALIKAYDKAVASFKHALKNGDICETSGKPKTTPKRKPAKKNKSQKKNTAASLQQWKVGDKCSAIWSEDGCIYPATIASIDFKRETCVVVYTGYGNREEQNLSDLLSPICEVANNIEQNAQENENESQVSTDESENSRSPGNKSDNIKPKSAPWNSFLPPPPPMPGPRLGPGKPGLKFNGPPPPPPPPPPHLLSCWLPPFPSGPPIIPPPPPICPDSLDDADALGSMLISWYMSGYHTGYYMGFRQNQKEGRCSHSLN
# UniProt O14893: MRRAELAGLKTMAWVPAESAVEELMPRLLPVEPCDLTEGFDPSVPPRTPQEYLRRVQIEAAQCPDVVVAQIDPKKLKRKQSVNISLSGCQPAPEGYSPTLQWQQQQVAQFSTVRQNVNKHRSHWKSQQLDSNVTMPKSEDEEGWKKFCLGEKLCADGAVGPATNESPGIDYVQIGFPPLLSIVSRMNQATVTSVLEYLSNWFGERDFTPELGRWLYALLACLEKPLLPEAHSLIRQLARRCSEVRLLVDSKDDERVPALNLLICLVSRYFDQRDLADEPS
# UniProt Q8TEQ6: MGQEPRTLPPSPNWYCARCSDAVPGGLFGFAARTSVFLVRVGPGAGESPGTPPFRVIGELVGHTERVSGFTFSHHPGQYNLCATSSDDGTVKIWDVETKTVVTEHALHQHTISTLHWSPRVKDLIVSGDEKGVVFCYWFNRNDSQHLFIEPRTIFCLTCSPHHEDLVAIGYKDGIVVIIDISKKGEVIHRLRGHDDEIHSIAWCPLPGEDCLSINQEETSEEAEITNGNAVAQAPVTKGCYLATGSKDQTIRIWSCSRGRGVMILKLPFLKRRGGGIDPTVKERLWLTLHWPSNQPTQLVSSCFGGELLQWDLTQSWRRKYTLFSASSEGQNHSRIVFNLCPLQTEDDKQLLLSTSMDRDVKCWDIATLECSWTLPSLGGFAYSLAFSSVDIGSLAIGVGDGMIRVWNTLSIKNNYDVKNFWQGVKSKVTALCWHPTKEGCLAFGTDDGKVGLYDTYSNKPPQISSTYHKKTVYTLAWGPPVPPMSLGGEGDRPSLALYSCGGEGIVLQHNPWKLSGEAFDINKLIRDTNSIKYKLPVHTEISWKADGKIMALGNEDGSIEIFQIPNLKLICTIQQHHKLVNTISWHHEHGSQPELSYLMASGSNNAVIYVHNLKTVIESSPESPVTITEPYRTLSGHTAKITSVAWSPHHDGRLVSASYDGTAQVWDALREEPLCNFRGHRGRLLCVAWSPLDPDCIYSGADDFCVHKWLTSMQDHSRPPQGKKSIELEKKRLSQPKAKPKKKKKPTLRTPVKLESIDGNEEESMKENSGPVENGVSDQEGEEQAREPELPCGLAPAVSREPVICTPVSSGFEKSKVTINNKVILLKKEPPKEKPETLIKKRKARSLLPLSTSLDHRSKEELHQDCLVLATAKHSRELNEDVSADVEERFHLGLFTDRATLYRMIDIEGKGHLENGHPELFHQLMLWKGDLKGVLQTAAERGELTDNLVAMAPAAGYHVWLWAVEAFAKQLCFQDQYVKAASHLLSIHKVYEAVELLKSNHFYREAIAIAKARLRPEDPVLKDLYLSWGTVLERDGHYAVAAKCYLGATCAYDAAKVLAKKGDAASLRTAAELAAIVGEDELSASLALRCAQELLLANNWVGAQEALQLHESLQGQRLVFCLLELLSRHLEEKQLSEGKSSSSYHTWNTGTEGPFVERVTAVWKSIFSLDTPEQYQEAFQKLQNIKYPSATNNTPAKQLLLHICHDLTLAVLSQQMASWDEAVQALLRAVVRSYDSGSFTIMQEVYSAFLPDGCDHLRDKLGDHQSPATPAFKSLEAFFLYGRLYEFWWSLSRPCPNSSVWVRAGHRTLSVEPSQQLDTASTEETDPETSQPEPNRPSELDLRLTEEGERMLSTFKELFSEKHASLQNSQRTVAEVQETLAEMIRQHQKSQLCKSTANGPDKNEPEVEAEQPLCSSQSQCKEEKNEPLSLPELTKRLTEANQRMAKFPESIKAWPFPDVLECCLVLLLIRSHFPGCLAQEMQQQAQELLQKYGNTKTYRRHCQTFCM
# UniProt P17480: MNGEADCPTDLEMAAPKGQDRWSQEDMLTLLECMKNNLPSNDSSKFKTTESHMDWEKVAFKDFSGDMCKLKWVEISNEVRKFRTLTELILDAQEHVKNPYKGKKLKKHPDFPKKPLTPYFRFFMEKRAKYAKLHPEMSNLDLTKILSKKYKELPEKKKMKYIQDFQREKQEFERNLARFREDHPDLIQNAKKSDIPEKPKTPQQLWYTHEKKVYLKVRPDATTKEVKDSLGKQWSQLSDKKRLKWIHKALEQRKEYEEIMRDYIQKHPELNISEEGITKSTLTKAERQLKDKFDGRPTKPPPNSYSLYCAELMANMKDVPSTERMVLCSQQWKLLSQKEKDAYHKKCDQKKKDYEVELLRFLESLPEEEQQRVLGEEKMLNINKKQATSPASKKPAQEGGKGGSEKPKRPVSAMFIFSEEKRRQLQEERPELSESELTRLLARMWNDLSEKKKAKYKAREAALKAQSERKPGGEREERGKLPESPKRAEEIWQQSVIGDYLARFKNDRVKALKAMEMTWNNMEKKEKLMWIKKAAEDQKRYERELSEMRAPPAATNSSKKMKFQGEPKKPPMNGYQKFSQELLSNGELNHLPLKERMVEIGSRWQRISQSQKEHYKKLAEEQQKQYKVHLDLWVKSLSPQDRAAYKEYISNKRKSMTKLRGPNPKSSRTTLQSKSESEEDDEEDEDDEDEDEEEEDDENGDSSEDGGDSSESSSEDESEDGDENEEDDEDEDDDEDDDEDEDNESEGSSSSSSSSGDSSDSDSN
# UniProt O95602: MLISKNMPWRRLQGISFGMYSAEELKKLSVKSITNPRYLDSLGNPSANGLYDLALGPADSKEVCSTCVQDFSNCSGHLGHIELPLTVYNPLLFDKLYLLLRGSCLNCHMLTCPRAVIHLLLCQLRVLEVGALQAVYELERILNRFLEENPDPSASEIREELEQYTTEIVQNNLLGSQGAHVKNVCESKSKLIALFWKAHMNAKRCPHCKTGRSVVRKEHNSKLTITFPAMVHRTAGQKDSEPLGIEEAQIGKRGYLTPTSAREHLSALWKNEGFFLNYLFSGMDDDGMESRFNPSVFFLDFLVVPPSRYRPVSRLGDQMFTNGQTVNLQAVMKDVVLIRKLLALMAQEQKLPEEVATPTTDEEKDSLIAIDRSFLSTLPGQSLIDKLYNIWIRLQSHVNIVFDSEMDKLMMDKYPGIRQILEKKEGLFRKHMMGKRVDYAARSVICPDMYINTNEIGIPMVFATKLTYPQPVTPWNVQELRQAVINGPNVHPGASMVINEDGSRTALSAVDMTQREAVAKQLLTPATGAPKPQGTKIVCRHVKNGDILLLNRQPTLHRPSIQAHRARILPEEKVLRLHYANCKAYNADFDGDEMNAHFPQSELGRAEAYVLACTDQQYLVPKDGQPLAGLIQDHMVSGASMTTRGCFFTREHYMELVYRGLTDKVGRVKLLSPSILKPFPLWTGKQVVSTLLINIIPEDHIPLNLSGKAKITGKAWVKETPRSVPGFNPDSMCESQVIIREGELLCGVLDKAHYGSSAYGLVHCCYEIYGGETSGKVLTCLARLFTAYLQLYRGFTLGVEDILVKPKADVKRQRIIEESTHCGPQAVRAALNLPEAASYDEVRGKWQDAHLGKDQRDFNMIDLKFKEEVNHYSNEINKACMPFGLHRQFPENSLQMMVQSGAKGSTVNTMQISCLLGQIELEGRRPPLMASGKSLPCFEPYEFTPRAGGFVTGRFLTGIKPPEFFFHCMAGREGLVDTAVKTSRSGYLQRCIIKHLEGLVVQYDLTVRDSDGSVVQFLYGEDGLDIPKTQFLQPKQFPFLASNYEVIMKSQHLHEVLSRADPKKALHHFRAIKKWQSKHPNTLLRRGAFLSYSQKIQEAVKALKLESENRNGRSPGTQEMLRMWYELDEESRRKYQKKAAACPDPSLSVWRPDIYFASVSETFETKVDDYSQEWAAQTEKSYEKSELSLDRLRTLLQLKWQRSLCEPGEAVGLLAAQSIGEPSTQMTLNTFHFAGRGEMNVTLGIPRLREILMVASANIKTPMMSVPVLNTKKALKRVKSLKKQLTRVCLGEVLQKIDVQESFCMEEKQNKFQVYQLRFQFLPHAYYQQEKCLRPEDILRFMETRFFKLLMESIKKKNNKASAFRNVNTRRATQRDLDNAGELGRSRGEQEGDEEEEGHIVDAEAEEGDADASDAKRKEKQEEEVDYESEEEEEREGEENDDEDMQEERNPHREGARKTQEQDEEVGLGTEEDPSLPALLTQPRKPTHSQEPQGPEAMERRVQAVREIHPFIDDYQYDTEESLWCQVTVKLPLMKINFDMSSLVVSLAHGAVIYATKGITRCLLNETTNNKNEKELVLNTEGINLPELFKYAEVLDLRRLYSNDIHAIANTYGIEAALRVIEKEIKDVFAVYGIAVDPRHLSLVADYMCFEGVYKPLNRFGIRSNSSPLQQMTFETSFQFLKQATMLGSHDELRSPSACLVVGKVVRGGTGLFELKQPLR
# UniProt O60264: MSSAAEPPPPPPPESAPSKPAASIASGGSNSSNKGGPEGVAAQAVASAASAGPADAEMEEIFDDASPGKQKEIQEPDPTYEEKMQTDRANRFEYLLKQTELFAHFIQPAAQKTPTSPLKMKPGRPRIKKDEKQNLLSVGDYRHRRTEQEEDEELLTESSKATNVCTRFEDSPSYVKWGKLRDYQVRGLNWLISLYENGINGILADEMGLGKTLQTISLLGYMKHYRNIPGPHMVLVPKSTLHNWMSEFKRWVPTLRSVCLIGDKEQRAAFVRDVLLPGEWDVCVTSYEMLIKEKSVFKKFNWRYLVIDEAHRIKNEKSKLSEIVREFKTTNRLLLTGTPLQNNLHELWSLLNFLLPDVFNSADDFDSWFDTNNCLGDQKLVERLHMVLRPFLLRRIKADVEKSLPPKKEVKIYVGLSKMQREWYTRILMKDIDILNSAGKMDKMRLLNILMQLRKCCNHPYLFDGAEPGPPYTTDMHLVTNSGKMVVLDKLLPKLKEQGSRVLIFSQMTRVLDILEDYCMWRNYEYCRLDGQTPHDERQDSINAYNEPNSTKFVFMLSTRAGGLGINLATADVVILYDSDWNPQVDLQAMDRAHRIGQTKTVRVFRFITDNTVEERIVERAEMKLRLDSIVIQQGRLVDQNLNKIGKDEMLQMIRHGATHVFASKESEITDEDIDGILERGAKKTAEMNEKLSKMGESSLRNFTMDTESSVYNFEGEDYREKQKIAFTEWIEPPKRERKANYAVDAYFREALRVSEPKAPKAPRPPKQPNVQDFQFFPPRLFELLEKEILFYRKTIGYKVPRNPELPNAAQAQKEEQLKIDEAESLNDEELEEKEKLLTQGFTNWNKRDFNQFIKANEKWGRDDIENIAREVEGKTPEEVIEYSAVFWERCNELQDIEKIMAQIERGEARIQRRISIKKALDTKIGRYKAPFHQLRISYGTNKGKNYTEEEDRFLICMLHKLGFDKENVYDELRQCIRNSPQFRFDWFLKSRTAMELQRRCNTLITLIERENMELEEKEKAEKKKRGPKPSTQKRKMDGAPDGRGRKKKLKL
# Biological target: GFP–SMN1 (survival of motor neurons protein, GFP-tagged) (human) (UniProt Q16637)
# Test: affinity purification with mass spectrometry; triple SILAC; nuclei of U2OS (control), U2OS^GFP–SMN1 (over-expression) and U2OS^GFP–SMN1-PR (replacement) cells solubilised in RIPA buffer, lysates mixed 1:1:1; GFP–SMN1 captured with GFP-TRAP_A; LC-MS/MS, MaxQuant
row,Molecule,binding
1,Gemin2 (from UniProt O14893 1-280),binds
2,Gemin5 (from UniProt Q8TEQ6 1-1508),binds
3,"Gemin8 (protein, UniProt Q9NWZ8 1-242) MAAVKASTSKATRPWYSHPVYARYWQHYHQAMAWMQSHHNAYRKAVESCFNLPWYLPSALLPQSSYDNEAAYPQSFYDHHVAWQDYPCSSSHFRRSGQHPRYSSRIQASTKEDQALSKEEEMETESDAEVECDLSNMEITEELRQYFAETERHREERRRQQQLDAERLDSYVNADHDLYCNTRRSVEAPTERPGERRQAEMKRLYGDSAAKIQAMEAAVQLSFDKHCDRKQPKYWPVIPLKF",binds

# Biological target: mCherry–UBF1 (upstream binding factor 1, mCherry-tagged) (human) (UniProt P17480)
# Test: affinity purification with mass spectrometry; triple SILAC; nuclei of HeLa (control) and HeLa^mCherry–UBF1-PR cells, untreated or treated with low-concentration Actinomycin-D, solubilised in RIPA buffer, lysates mixed 1:1:1; mCherry–UBF1 captured with RFP-TRAP_A; LC-MS/MS, MaxQuant
row,binding,Molecule
1,binds,POLR1A (polymerase (RNA) I polypeptide A) (from UniProt O95602 1-1720)
2,binds,"SMARCA5/SNF2h (SWI/SNF related, matrix associated, actin dependent regulator of chromatin, subfamily a, member 5) (from UniProt O60264 1-1052)"
3,binds,"WSTF (Williams syndrome transcription factor) (protein, UniProt Q9UIG0 1-1483) MAPLLGRKPFPLVKPLPGEEPLFTIPHTQEAFRTREEYEARLERYSERIWTCKSTGSSQLTHKEAWEEEQEVAELLKEEFPAWYEKLVLEMVHHNTASLEKLVDTAWLEIMTKYAVGEECDFEVGKEKMLKVKIVKIHPLEKVDEEATEKKSDGACDSPSSDKENSSQIAQDHQKKETVVKEDEGRRESINDRARRSPRKLPTSLKKGERKWAPPKFLPHKYDVKLQNEDKIISNVPADSLIRTERPPNKEIVRYFIRHNALRAGTGENAPWVVEDELVKKYSLPSKFSDFLLDPYKYMTLNPSTKRKNTGSPDRKPSKKSKTDNSSLSSPLNPKLWCHVHLKKSLSGSPLKVKNSKNSKSPEEHLEEMMKMMSPNKLHTNFHIPKKGPPAKKPGKHSDKPLKAKGRSKGILNGQKSTGNSKSPKKGLKTPKTKMKQMTLLDMAKGTQKMTRAPRNSGGTPRTSSKPHKHLPPAALHLIAYYKENKDREDKRSALSCVISKTARLLSSEDRARLPEELRSLVQKRYELLEHKKRWASMSEEQRKEYLKKKREELKKKLKEKAKERREKEMLERLEKQKRYEDQELTGKNLPAFRLVDTPEGLPNTLFGDVAMVVEFLSCYSGLLLPDAQYPITAVSLMEALSADKGGFLYLNRVLVILLQTLLQDEIAEDYGELGMKLSEIPLTLHSVSELVRLCLRRSDVQEESEGSDTDDNKDSAAFEDNEVQDEFLEKLETSEFFELTSEEKLQILTALCHRILMTYSVQDHMETRQQMSAELWKERLAVLKEENDKKRAEKQKRKEMEAKNKENGKVENGLGKTDRKKEIVKFEPQVDTEAEDMISAVKSRRLLAIQAKKEREIQEREMKVKLERQAEEERIRKHKAAAEKAFQEGIAKAKLVMRRTPIGTDRNHNRYWLFSDEVPGLFIEKGWVHDSIDYRFNHHCKDHTVSGDEDYCPRSKKANLGKNASMNTQHGTATEVAVETTTPKQGQNLWFLCDSQKELDELLNCLHPQGIRESQLKERLEKRYQDIIHSIHLARKPNLGLKSCDGNQELLNFLRSDLIEVATRLQKGGLGYVEETSEFEARVISLEKLKDFGECVIALQASVIKKFLQGFMAPKQKRRKLQSEDSAKTEEVDEEKKMVEEAKVASALEKWKTAIREAQTFSRMHVLLGMLDACIKWDMSAENARCKVCRKKGEDDKLILCDECNKAFHLFCLRPALYEVPDGEWQCPACQPATARRNSRGRNYTEESASEDSEDDESDEEEEEEEEEEEEEDYEVAGLRLRPRKTIRGKHSVIPPAARSGRRPGKKPHSTRRSQPKAPPVDDAEVDELVLQTKRSSRRQSLELQKCEEILHKIVKYRFSWPFREPVTRDEAEDYYDVITHPMDFQTVQNKCSCGSYRSVQEFLTDMKQVFTNAEVYNCRGSHVLSCMVKTEQCLVALLHKHLPGHPYVRRKRKKFPDRLAEDEGDSEPEAVGQSRGRRQKK"
4,binds,"TCOF1 (Treacle) (protein, UniProt Q13428 1-1488) MAEARKRRELLPLIYHHLLRAGYVRAAREVKEQSGQKCFLAQPVTLLDIYTHWQQTSELGRKRKAEEDAALQAKKTRVSDPISTSESSEEEEEAEAETAKATPRLASTNSSVLGADLPSSMKEKAKAETEKAGKTGNSMPHPATGKTVANLLSGKSPRKSAEPSANTTLVSETEEEGSVPAFGAAAKPGMVSAGQADSSSEDTSSSSDETDVEGKPSVKPAQVKASSVSTKESPARKAAPAPGKVGDVTPQVKGGALPPAKRAKKPEEESESSEEGSESEEEAPAGTRSQVKASEKILQVRAASAPAKGTPGKGATPAPPGKAGAVASQTKAGKPEEDSESSSEESSDSEEETPAAKALLQAKASGKTSQVGAASAPAKESPRKGAAPAPPGKTGPAVAKAQAGKREEDSQSSSEESDSEEEAPAQAKPSGKAPQVRAASAPAKESPRKGAAPAPPRKTGPAAAQVQVGKQEEDSRSSSEESDSDREALAAMNAAQVKPLGKSPQVKPASTMGMGPLGKGAGPVPPGKVGPATPSAQVGKWEEDSESSSEESSDSSDGEVPTAVAPAQEKSLGNILQAKPTSSPAKGPPQKAGPVAVQVKAEKPMDNSESSEESSDSADSEEAPAAMTAAQAKPALKIPQTKACPKKTNTTASAKVAPVRVGTQAPRKAGTATSPAGSSPAVAGGTQRPAEDSSSSEESDSEEEKTGLAVTVGQAKSVGKGLQVKAASVPVKGSLGQGTAPVLPGKTGPTVTQVKAEKQEDSESSEEESDSEEAAASPAQVKTSVKKTQAKANPAAARAPSAKGTISAPGKVVTAAAQAKQRSPSKVKPPVRNPQNSTVLARGPASVPSVGKAVATAAQAQTGPEEDSGSSEEESDSEEEAETLAQVKPSGKTHQIRAALAPAKESPRKGAAPTPPGKTGPSAAQAGKQDDSGSSSEESDSDGEAPAAVTSAQVIKPPLIFVDPNRSPAGPAATPAQAQAASTPRKARASESTARSSSSESEDEDVIPATQCLTPGIRTNVVTMPTAHPRIAPKASMAGASSSKESSRISDGKKQEGPATQVSKKNPASLPLTQAALKVLAQKASEAQPPVARTQPSSGVDSAVGTLPATSPQSTSVQAKGTNKLRKPKLPEVQQATKAPESSDDSEDSSDSSSGSEEDGEGPQGAKSAHTLGPTPSRTETLVEETAAESSEDDVVAPSQSLLSGYMTPGLTPANSQASKATPKLDSSPSVSSTLAAKDDPDGKQEAKPQQAAGMLSPKTGGKEAASGTTPQKSRKPKKGAGNPQASTLALQSNITQCLLGQPWPLNEAQVQASVVKVLTELLEQERKKVVDTTKESSRKGWESRKRKLSGDQPAARTPRSKKKKKLGAGEGGEASVSPEKTSTTSKGKAKRDKASGDVKEKKGKGSLGSQGAKDEPEEELQKGMGTVEGGDQSNPKSKKEKKKSDKRKKDKEKKEKKKKAKKASTKDSESPSQKKKKKKKKTAEQTV"

# No constants are given. Whether binding was seen depends on the method and setting. In cells and extracts the contact can be indirect. A yes stands for co-enrichment or nearness to the bait. Other partners may have been found.
